# Laboratory results taken from paper doi:10.1101/2020.06.03.130740.
# These are yes or no findings as the source states them, for the method shown. In cells and extracts the contact can be indirect.
# Target: GFP-tagged p22-P149A (Atlantic salmon reovirus Canada-2009) (UniProt C0L0N0)
# Assay: co-IP
substance,measurement,value
Intersectin-1 (from UniProt Q15811 1-1721),binding,no binding
